Values from PubChem BioAssay AID686938 (Drosophila RNAi Screening Center, 2013).
In all, the deposit lists about 23,000 reagents; this is a random part of those that have a named target and a result. Of all reagents, 75 (0.33%) were called active. 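Raw plate signals without normalisation; calls rest on plate z-scores that were not deposited; ratio present for only 364 wells.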 The numbers tell different reagents against one gene apart. Not stated in the record: the dose of the treatment.

Purpose: 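Fly genes required for calcium entry once internal stores are emptied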 (primary screen)
Cells: Drosophila S2R+ cells
Reagent: long dsRNA against Drosophila genes, about 0.25 µg dsRNA per well, roughly 10,000 cells
Timing: 5 days of knock-down before the calcium assay
Treatment: thapsigargin (SERCA pump blocker) to empty calcium stores; entry signal taken 4 min after adding it
Measured: 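Per-well fluo-4 fluorescence in two replicates, unnormalised, measured in resting cells and 4 min after store depletion by the SERCA blocker thapsigargin; ratio of the two present in few wells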
Direction: calcium entry signal: higher = stronger calcium signal after store depletion; entry to resting ratio: higher = more calcium entry relative to resting level; resting calcium signal: higher = higher resting calcium signal
Units: calcium entry signal in fluorescence units; resting calcium signal in fluorescence units
Call rule: 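Hit if the duplicate-averaged plate z-score for entry over resting signal is under −3; wells with weak total dye signal (Fmax z < −2) or more than 5 off-targets removed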
Meaning of the calls: active = strongly reduced calcium entry; inactive = no strong reduction

nito (spenito) gave calcium entry signal, replicate 1 = 2.73e7; calcium entry signal, replicate 2 = 2.56e7; resting calcium signal, replicate 1 = 1.27e7; resting calcium signal, replicate 2 = 1.20e7; inactive. With knock-down of CG9269, the screen gave calcium entry signal, replicate 1 = 3.46e7; calcium entry signal, replicate 2 = 3.82e7; resting calcium signal, replicate 1 = 1.59e7; resting calcium signal, replicate 2 = 3.87e6; inactive. For Sclp, the entry reads calcium entry signal, replicate 1 = 4.05e7; calcium entry signal, replicate 2 = 4.45e7; resting calcium signal, replicate 1 = 1.82e7; resting calcium signal, replicate 2 = 2.08e7; inactive. After knock-down of CG30087, the record shows calcium entry signal, replicate 1 = 4.43e7; calcium entry signal, replicate 2 = 4.05e7; resting calcium signal, replicate 1 = 2.40e7; resting calcium signal, replicate 2 = 1.81e7; inactive. After knock-down of CG12126 the results were calcium entry signal, replicate 1 = 2.81e7; calcium entry signal, replicate 2 = 3.58e7; resting calcium signal, replicate 1 = 1.33e7; resting calcium signal, replicate 2 = 1.46e7; inactive. Silencing of CG4194 gave: calcium entry signal, replicate 1 = 3.96e7; calcium entry signal, replicate 2 = 4.38e7; resting calcium signal, replicate 1 = 1.86e7; resting calcium signal, replicate 2 = 2.04e7; inactive.

After knock-down of sced (scrambled) the results were calcium entry signal, replicate 1 = 4.49e7; resting calcium signal, replicate 1 = 2.37e7; inactive. For hzg (herzog) the deposit lists calcium entry signal, replicate 1 = 4.58e7; calcium entry signal, replicate 2 = 4.47e7; resting calcium signal, replicate 1 = 2.84e7; resting calcium signal, replicate 2 = 2.16e7; inactive.

Quoted from the listing (2 entries):
CG30087 → calcium entry signal, replicate 1 = 4.43e7; calcium entry signal, replicate 2 = 4.05e7; resting calcium signal, replicate 1 = 2.40e7; resting calcium signal, replicate 2 = 1.81e7; call = inactive
CG12126 → calcium entry signal, replicate 1 = 2.81e7; calcium entry signal, replicate 2 = 3.58e7; resting calcium signal, replicate 1 = 1.33e7; resting calcium signal, replicate 2 = 1.46e7; call = inactive

The list goes on:
Galt (Galactose-1-phosphate uridylyltransferase) gave calcium entry signal, replicate 1 = 4.78e7; resting calcium signal, replicate 1 = 2.73e7; inactive. For CG9826, the values are calcium entry signal, replicate 1 = 4.29e7; calcium entry signal, replicate 2 = 4.07e7; resting calcium signal, replicate 1 = 2.14e7; resting calcium signal, replicate 2 = 1.76e7; inactive. Depletion of CG43075 gave: calcium entry signal, replicate 1 = 3.83e7; calcium entry signal, replicate 2 = 3.69e7; resting calcium signal, replicate 1 = 1.80e7; resting calcium signal, replicate 2 = 1.76e7; inactive. With knock-down of qm (quemao), the screen gave calcium entry signal, replicate 1 = 2.54e7; calcium entry signal, replicate 2 = 8.07e7; resting calcium signal, replicate 1 = 1.20e7; resting calcium signal, replicate 2 = 2.67e7; inactive. Against CG7650, the values are calcium entry signal, replicate 1 = 6.92e7; calcium entry signal, replicate 2 = 2.35e7; resting calcium signal, replicate 1 = 2.73e7; resting calcium signal, replicate 2 = 1.17e7; inactive. foxo (forkhead box, sub-group O) #1 showed calcium entry signal, replicate 1 = 3.45e7; calcium entry signal, replicate 2 = 4.27e7; resting calcium signal, replicate 1 = 2.10e7; resting calcium signal, replicate 2 = 2.36e7; inactive.

For foxo (forkhead box, sub-group O) #2 the deposit lists calcium entry signal, replicate 1 = 2.87e7; calcium entry signal, replicate 2 = 3.06e7; resting calcium signal, replicate 1 = 1.30e7; resting calcium signal, replicate 2 = 1.51e7; inactive. CHES-1-like (Checkpoint suppressor 1-like) scored calcium entry signal, replicate 1 = 3.92e7; calcium entry signal, replicate 2 = 4.44e7; resting calcium signal, replicate 1 = 1.85e7; resting calcium signal, replicate 2 = 2.17e7; inactive. Cad99C (Cadherin 99C) #1 scored calcium entry signal, replicate 1 = 3.49e7; calcium entry signal, replicate 2 = 6.03e7; resting calcium signal, replicate 1 = 1.83e7; resting calcium signal, replicate 2 = 2.44e7; inactive. Depletion of Cad99C (Cadherin 99C) #2 gave: calcium entry signal, replicate 1 = 4.89e7; calcium entry signal, replicate 2 = 5.16e7; resting calcium signal, replicate 1 = 2.28e7; resting calcium signal, replicate 2 = 2.41e7; inactive. CG1137 scored calcium entry signal, replicate 1 = 4.46e7; calcium entry signal, replicate 2 = 2.44e7; resting calcium signal, replicate 1 = 2.14e7; resting calcium signal, replicate 2 = 1.25e7; inactive. Silencing of Med (Medea) came out at: calcium entry signal, replicate 1 = 4.05e7; calcium entry signal, replicate 2 = 4.39e7; entry to resting ratio 2.2; resting calcium signal, replicate 1 = 1.88e7; resting calcium signal, replicate 2 = 2.05e7; inactive.

Depletion of CG34242 came out at: calcium entry signal, replicate 1 = 3.70e7; calcium entry signal, replicate 2 = 3.64e7; resting calcium signal, replicate 1 = 1.99e7; resting calcium signal, replicate 2 = 1.89e7; inactive.
